Some of these results come from one statement about several compounds together.
Test system: human lung tryptase
Assay: Tryptase inhibition assay (chromogenic substrate S-2366)
Format: biochemical
Conditions: so each compound meets at least one of the two; for inhibition value: at 400 ηM, criterion worded 'and/or' with Ki; for Ki: criterion worded 'and/or' with % inhibition

SMILES: NCc1ccc(CNC(=O)C2C=CC(C3CCN(C(=O)CCCNC(=O)Cc4ccc(N)cc4)CC3)n3c(=O)n(Cc4cccc5ccccc45)c(=O)n32)cc1 (stereo not shown) [compound 1]
- inhibition value: greater than 70%
- Ki: < 300 nM

SMILES: NCc1ccc(CNC(=O)C2C=CC(C3CCN(C(=O)C4CCC(CNC(=O)Cc5ccc(N)cc5)CC4)CC3)n3c(=O)n(Cc4cccc5ccccc45)c(=O)n32)cc1 (stereo not shown) [compound 3]
- inhibition value: greater than 70%
- Ki: < 300 nM

SMILES: NCc1ccc(CNC(=O)C2C=CC(C3CCN(C(=O)CCCNC(=O)c4ccc(CN)cc4)CC3)n3c(=O)n(Cc4cccc5ccccc45)c(=O)n32)cc1 (stereo not shown) [compound 6]
- inhibition value: greater than 70%
- Ki: < 300 nM

SMILES: NCc1ccc(CNC(=O)C2C=CC(C3CCN(C(=O)CCNC(=O)Cc4ccc(N)cc4)CC3)n3c(=O)n(Cc4cccc5ccccc45)c(=O)n32)cc1 (stereo not shown) [compound 13]
- inhibition value: greater than 70%
- Ki: < 300 nM

SMILES: NCc1ccc(CNC(=O)C2C=CC(C3CCN(C(=O)C4CCN(C(=O)Cc5ccc(N)cc5)CC4)CC3)n3c(=O)n(Cc4cccc5ccccc45)c(=O)n32)cc1 (stereo not shown) [compound 14]
- inhibition value: greater than 70%
- Ki: < 300 nM

SMILES: N=C(N)Nc1cccc(Cn2c(=O)n3n(c2=O)C(C2CCN(C(=O)CNC(=O)Cc4ccc(N)cc4)CC2)C=CC3C(=O)NCc2ccc(CN)cc2)c1 (stereo not shown) [compound 20]
- inhibition value: greater than 70%
- Ki: < 300 nM

SMILES: NCc1ccc(CNC(=O)C2C=CC(C3CCN(C(=O)CCCNC(=O)Cc4ccc(N)cc4)CC3)n3c(=O)n(Cc4ccccc4)c(=O)n32)cc1 (stereo not shown) [compound 27]
- inhibition value: greater than 70%
- Ki: < 300 nM

SMILES: N=C(N)c1ccc(CNC(=O)C2C=CC(C3CCN(C(=O)CNC(=O)Cc4ccc(N)cc4)CC3)n3c(=O)n(Cc4cccc5ccccc45)c(=O)n32)cc1 (stereo not shown) [compound 39]
- inhibition value: greater than 70%
- Ki: < 300 nM

SMILES: N=C(N)c1ccc(CNC(=O)C2C=CC(C3CCN(C(=O)CCNC(=O)Cc4ccc(N)cc4)CC3)n3c(=O)n(Cc4cccc5ccccc45)c(=O)n32)cc1 (stereo not shown) [compound 40]
- inhibition value: greater than 70%
- Ki: < 300 nM

SMILES: N=C(N)c1ccc(CNC(=O)C2C=CC(C3CCN(C(=O)CCCc4ccc(N)cc4)CC3)n3c(=O)n(Cc4cccc5ccccc45)c(=O)n32)cc1 (stereo not shown) [compound 41]
- inhibition value: greater than 70%
- Ki: < 300 nM

SMILES: NCc1ccc(CNC(=O)C2C=CC(C3CCN(C(=O)CCCCNC(=O)c4ccc(CN)cc4)CC3)n3c(=O)n(Cc4cccc5ccccc45)c(=O)n32)cc1 (stereo not shown) [compound 42]
- inhibition value: greater than 70%
- Ki: < 300 nM

SMILES: NCc1ccc(CNC(=O)C2C=CC(C3CCN(C(=O)CCCCCNC(=O)c4ccc(CN)cc4)CC3)n3c(=O)n(Cc4cccc5ccccc45)c(=O)n32)cc1 (stereo not shown) [compound 44]
- inhibition value: greater than 70%
- Ki: < 300 nM

SMILES: NCc1ccc(CNC(=O)C2C=CC(C3CCN(C(=O)C=CC=CCNC(=O)c4ccc(CN)cc4)CC3)n3c(=O)n(Cc4cccc5ccccc45)c(=O)n32)cc1 (stereo not shown) [compound 52]
- inhibition value: greater than 70%
- Ki: < 300 nM

SMILES: N=C(N)Nc1cccc(Cn2c(=O)n3n(c2=O)C(C2CCN(C(=O)CCCNC(=O)Cc4ccc(N)cc4)CC2)C=CC3C(=O)NCc2ccc(CN)cc2)c1 (stereo not shown) [compound 57]
- inhibition value: greater than 70%
- Ki: < 300 nM

SMILES: N=C(N)c1ccc(CNC(=O)C2C=CC(C3CCN(C(=O)CCCNC(=O)Cc4ccc(N)cc4)CC3)n3c(=O)n(CCS(=O)(=O)c4ccccc4)c(=O)n32)cc1 (stereo not shown) [compound 60]
- inhibition value: greater than 70%
- Ki: < 300 nM

SMILES: N=C(N)c1ccc(CNC(=O)C2C=CC(C3CCN(C(=O)CCCNC(=O)Cc4ccc(N)cc4)CC3)n3c(=O)n(Cc4cccc5ccccc45)c(=O)n32)cc1 (stereo not shown) [compound 61]
- inhibition value: greater than 70%
- Ki: < 300 nM

SMILES: NCc1ccc(CNC(=O)C2C=CC(C3CCN(C(=O)CCCCNC(=O)c4ccc(CN)cc4)CC3)n3c(=O)n(Cc4ccccc4)c(=O)n32)cc1 (stereo not shown) [compound 79]
- inhibition value: greater than 70%
- Ki: < 300 nM

SMILES: NCc1ccc(CNC(=O)CCC(=O)N2CCC(C3C=CC(C(=O)NCc4ccc(CN)cc4)n4c(=O)n(Cc5cccc6ccccc56)c(=O)n43)CC2)cc1 (stereo not shown) [compound 82]
- inhibition value: greater than 70%
- Ki: < 300 nM

SMILES: N=C(N)Nc1cccc(Cn2c(=O)n3n(c2=O)C(C2CCN(C(=O)C4CCN(C(=O)Cc5ccc(N)cc5)CC4)CC2)C=CC3C(=O)NCc2ccc(CN)cc2)c1 (stereo not shown) [compound 87]
- inhibition value: greater than 70%
- Ki: < 300 nM

SMILES: N=C(N)c1ccc(CNC(=O)CCn2c(=O)n3n(c2=O)C(C2CCNCC2)C=CC3C(=O)NCc2ccc(CN)cc2)cc1 (stereo not shown) [compound 123]
- inhibition value: greater than 70%
- Ki: < 300 nM

SMILES: NCc1ccc(CNC(=O)C2C=CC(C3CCNCC3)n3c(=O)n(CCC(=O)NCc4cccc(CN)c4)c(=O)n32)cc1 (stereo not shown) [compound 127]
- inhibition value: greater than 70%
- Ki: < 300 nM

SMILES: N=C(N)c1ccc(CNC(=O)CCCCn2c(=O)n3n(c2=O)C(C2CCNCC2)C=CC3C(=O)NCc2ccc(CN)cc2)cc1 (stereo not shown) [compound 132]
- inhibition value: greater than 70%
- Ki: < 300 nM

SMILES: NCc1ccc(CNC(=O)C2C=CC(C3CCNCC3)n3c(=O)n(CCCCC(=O)NCc4cccc(CN)c4)c(=O)n32)cc1 (stereo not shown) [compound 134]
- inhibition value: greater than 70%
- Ki: < 300 nM

Reference: patent US7053214B2, “β-sheet mimetics and composition and methods relating thereto” (Myriad Genetics, Inc., priority 2002, dated 2006)
